Experimental data taken from article PMC11013284, “Chemoselective Synthesis and Anti-Kinetoplastidal Properties of 2,6-Diaryl-4H-tetrahydro-thiopyran-4-one S-Oxides: Their Interplay in a Cascade of Redox Reactions from Diarylideneacetones” (Molecules, 2024).

Test system: human diploid embryonic lung fibroblast hMRC-5SV2 cells
Assay: Cytotoxicity toward hMRC-5SV2 cells (resazurin)
Conditions: hMRC-5 cytotoxicity versus antiparasitic IC50
Description: The cytotoxicity of compounds was evaluated toward human diploid embryonic lung fibroblast hMRC-5SV2 cells, derived from fetal lung tissue and first described in 1970. hMRC-5SV2 cells were cultured in 96-well plates with five concentrations of the compound (64, 16, 4, 1, and 0.25 μM). After 3 days of incubation, the cell viability was assessed fluorimetrically after the addition of resazurin, and fluorescence was measured (λex = 550 nm, λem = 590 nm). The results were expressed as a percentage reduction in cell growth/viability compared to control wells, and a 50% cytotoxic concentration (CC50) was calculated. The reference cytotoxic drugs were tamoxifen or ivermectin. Additionally, toxicity toward mouse macrophages was qualitatively observed. Three concentrations were included (64, 16, and 4 µM), and the range of toxicity was ranked from the least toxic to the most toxic compound.

## O=C1CC(c2ccccn2)[S+]([O-])C(c2ccccn2)C1 (stereo not drawn) [3w, (±)-trans-2,6-Di-(pyridin-2-yl)-4H-tetrahydrothiopyran-4-one 1-oxide]
  selectivity index: acceptable

## O=C1CC(c2ccccn2)[S+]([O-])C(c2ccccn2)C1 (mixture of isomers) [3′w, (syn/anti)-cis-2,6-Di-(pyridin-2-yl)-4H-tetra-hydrothiopyran-4-one 1-oxide, as diastereoisomeric mixture]
  selectivity index: acceptable
